Source: PubChem BioAssay AID2685 (National Center for Advancing Translational Sciences (NCATS), 2010)
The list shows a part of the results. These are further read-outs of the screen, such as a control signal, another cell line or another target. No call is given for them. Compounds called inactive in the main read-out are mostly missing here. Words in brackets tell the shape of the fitted curve; partial curves, single points and poor fits give uncertain potencies.

Experiment: qHTS Assay for Lipid Storage Modulators in Drosophila S3 Cells;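 on cell number change: cells counted by Cell Tracker Red CMTPX staining in the red channel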
Conditions: BODIPY lipid droplet fluorescence, 18-24 h; for cell number change: measured here: cell count max response, cells fed with added oleic acid
Outline: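 Drosophila S3 cells loaded with oleic acid (400 uM, as added) and compounds at several concentrations; lipid droplets imaged by 488-nm laser-scanning cytometry, 500–530 nm intensity and object ratio to cell channel. Percent activity normalized to 20 uM Triacsin C.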

[1] = measured here: cell number channel AC50, cells fed with added oleic acid
[2] = measured here: lipid fluorescence (Fed channel) AC50, cells fed with added oleic acid

What does the source list for CC(C(=O)Nc1ccc2c(c1)OCCO2)N(C)CC(=O)Nc1ccccc1Br (centres undefined)?
AC50 [1]: 0.366 µM [falling, single point]; AC50 [2]: 29.1 µM [falling, single point]

Which cell number change does the source give for Cc1ccc(C(C(=O)NCC2CCCO2)N(C(=O)c2snc(C(N)=O)c2N)c2ccc3c(c2)OCCO3)cc1 (centres undefined) here?
Its cell number change is -13.5%.

And the AC50 [1]?
The AC50 was 6.51 µM [falling, single point].

With CCc1nn2cc(C(=O)c3ccccc3O)cnc2c1-c1ccc(F)cc1 as the compound, how does the cell number change read?
The cell number change was 23.4%.

And the AC50 [2]?
The AC50 was 4.61 µM [rising, full curve].

Which cell number change does the source give for O=C(CN1CCN(C/C=C/c2ccccc2)CC1)NC(=O)NC1CCCCC1 here?
The cell number change was -9.17%.

What about the AC50 [1] of the same compound?
The AC50 was 0.651 µM [falling, single point].

For CN1C(=O)CSC1=Nc1cccc(Cl)c1, which cell number change is on record?
The cell number change was 9.84%.

And the AC50 [2]?
The AC50 was 0.0731 µM [rising, full curve, poor fit].

With O=C(CNC(=O)c1ccccc1F)OCn1nnc2ccccc2c1=O as the compound, how does the cell number change read?
Its cell number change is 11.1%.

What about the AC50 [2] of the same compound?
Its AC50 is 18.4 µM [falling, partial curve, poor fit].

With Oc1c(C(c2cccs2)N2CCOCC2)sc2ncnn12 (centres undefined) as the compound, how does the cell number change read?
Its cell number change is -1.32%.

And the AC50 [2]?
The AC50 was 1.16 µM [falling, full curve].

Which results are given for O=C(CSc1nc2ccccc2c(=O)n1CCCN1CCOCC1)Nc1ccc2c(c1)OCO2?
cell number change: 136%; AC50 [1]: 29.1 µM [rising, partial curve]; AC50 [2]: 23.1 µM [rising, partial curve]

For O=C(CN1C(=O)S/C(=C\C=C\c2ccccc2)C1=O)N1CCCCC1, which cell number change is on record?
Its cell number change is 22%.

What about the AC50 [1] of the same compound?
Its AC50 is 1.46 µM [rising, full curve, poor fit].

And the AC50 [2]?
The AC50 was 1.3 µM [rising, full curve, poor fit].

What does the source list for CCN(CC(=O)NCc1ccc(Cl)cc1)S(=O)(=O)c1ccc(NC(C)=O)cc1?
cell number change: 57.9%; AC50 [1]: 29.1 µM [rising, single point]

With O=C1CCCc2nc(N3CCc4ccccc43)ncc21 as the compound, how does the AC50 [1] read?
Its AC50 is 3.66 µM [rising, single point].

And the AC50 [2]?
The AC50 was 0.731 µM [rising, full curve].

Which cell number change does the source give for O=C(NCCCN1CCOCC1)c1cc(Cl)ccc1Cl here?
Its cell number change is 7.77%.

What about the AC50 [2] of the same compound?
Its AC50 is 0.731 µM [rising, partial curve, poor fit].

With COc1ccc(/C=N/N2CCOCC2)cc1COc1ccc(Cl)cc1 as the compound, how does the cell number change read?
The cell number change was -117%.

What about the AC50 [1] of the same compound?
The AC50 was 29.1 µM [falling, single point].

And the AC50 [2]?
Its AC50 is 29.1 µM [rising, single point].

Which cell number change does the source give for NC(=O)CSc1nnc(C2CC2)n1Cc1ccccc1 here?
The cell number change was -14.5%.

What about the AC50 [1] of the same compound?
The AC50 was 0.651 µM [falling, full curve, poor fit].

For CC(C)(C)c1ccc(S(=O)(=O)N2CCC(CO)(CC3CCCCO3)CC2)cc1 (centres undefined), which cell number change is on record?
Its cell number change is -13.1%.

What about the AC50 [2] of the same compound?
The AC50 was 0.58 µM [falling, full curve].

Which cell number change does the source give for CC(C)NC(=O)CN(C(=O)CCC(=O)Nc1nccs1)c1ccc2c(c1)OCO2 here?
Its cell number change is -25.6%.

What about the AC50 [1] of the same compound?
The AC50 was 0.651 µM [falling, full curve, poor fit].

And the AC50 [2]?
The AC50 was 29.1 µM [rising, single point].

Which results are given for Cc1cc(C)c(C)c(/C=C(/C#N)C(N)=S)c1C?
cell number change: -33.3%; AC50 [1]: 0.164 µM [falling, full curve, poor fit]

Which results are given for CN1C(=O)N(CC(=O)Nc2nccs2)C(=O)C12CCCCC2?
cell number change: 42.2%; AC50 [2]: 5.8 µM [falling, single point]

Which cell number change does the source give for CC1CCCC(NC(=O)COC(=O)c2c[nH]c(=O)[nH]c2=O)C1C (centres undefined) here?
The cell number change was 13.5%.

What about the AC50 [2] of the same compound?
Its AC50 is 4.61 µM [falling, full curve, poor fit].

What does the source list for CCn1c(CN2CCN(c3ccc(OC)cc3)CC2)nc2cc(S(=O)(=O)N(C)C)ccc21?
cell number change: 29.4%; AC50 [2]: 0.58 µM [falling, single point]

Which results are given for O=C(N/N=C/c1ccccc1OCc1ccccc1)c1cccs1?
cell number change: 22.9%; AC50 [2]: 3.66 µM [rising, partial curve, poor fit]

Which results are given for O=C(CCS(=O)(=O)Cc1ccccc1)NC1CCCCC1?
cell number change: -10.5%; AC50 [2]: 4.11 µM [falling, full curve]

Which cell number change does the source give for Clc1ccc(-c2nnc3sc(-c4ccco4)nn23)c(Cl)c1 here?
The cell number change was 4.5%.

And the AC50 [2]?
The AC50 was 29.1 µM [falling, single point].

For CC(NC(=O)c1ccco1)C12CC3CC(CC(C3)C1)C2 (centres undefined), which cell number change is on record?
The cell number change was -11.3%.

And the AC50 [2]?
The AC50 was 6.51 µM [rising, single point].

Which results are given for Cc1cccc2sc(N(CCN(C)C)C(=O)/C=C/c3cccs3)nc12?
cell number change: -56.1%; AC50 [1]: 11.6 µM [falling, partial curve]; AC50 [2]: 13 µM [falling, partial curve]

With CC(C)Cn1c(-c2ccco2)csc1=Nc1cccnc1 as the compound, how does the cell number change read?
The cell number change was -6%.

And the AC50 [2]?
Its AC50 is 6.51 µM [falling, single point].

Which results are given for S=c1[nH]nc(Cc2ccc(Br)cc2)n1/N=C/c1ccc(Cl)cc1?
cell number change: -38%; AC50 [1]: 17.8 µM [falling, single point]

Which cell number change does the source give for Cc1cccc(OCC(O)Cn2ccnc2C)c1 (centres undefined) here?
Its cell number change is -25.3%.

What about the AC50 [2] of the same compound?
The AC50 was 29.1 µM [falling, single point].

Which results are given for CCC1(c2ccc(F)cc2)NC(=O)N(CC(=O)Nc2ccccc2Cl)C1=O (centres undefined)?
cell number change: 6.31%; AC50 [2]: 29.1 µM [falling, partial curve, poor fit]

Which cell number change does the source give for C[C@H](NC(=O)C1CCC(CNC(=O)[C@@H]2CCCN2C(=O)OC(C)(C)C)CC1)C(=O)O (some centres undefined) here?
The cell number change was -12.8%.

Which cell number change does the source give for COc1ccc(OC)c(S(=O)(=O)N/N=C(/C)c2c[nH]c3ccccc23)c1 here?
Its cell number change is -15.3%.

And the AC50 [1]?
The AC50 was 0.082 µM [rising, full curve, poor fit].

Which results are given for COC(=O)c1c(C(=O)OC)c(-c2ccc(F)cc2)n2c1CS(=O)C2 (centres undefined)?
cell number change: 33.8%; AC50 [1]: 13 µM [rising, partial curve, poor fit]

What does the source list for O=C(CNCc1ccccc1Cl)Nc1ccc(C(=O)N2CCCCC2)cc1?
cell number change: 2.5%; AC50 [2]: 0.58 µM [falling, single point]

With CCN(Cc1ccccc1)c1ccc(/C=N/N=C(N)N)cc1 as the compound, how does the cell number change read?
The cell number change was -76.7%.

And the AC50 [1]?
The AC50 was 29.1 µM [falling, single point].

With Cc1ccc(-c2nc(N)sc2CC(=O)OCC(=O)NCC2CCCO2)cc1 (centres undefined) as the compound, how does the cell number change read?
The cell number change was 11.9%.

What about the AC50 [2] of the same compound?
Its AC50 is 6.51 µM [rising, single point].

For CCOC(=O)Cc1csc(NC(=O)CSc2nnc(C)n2C)n1, which cell number change is on record?
Its cell number change is -18%.

What about the AC50 [2] of the same compound?
The AC50 was 0.116 µM [falling, full curve].

For CCn1nc(C)cc1C(=O)N1CCCC(C(=O)c2cccc(OC)c2)C1 (centres undefined), which cell number change is on record?
The cell number change was -36.1%.

And the AC50 [1]?
Its AC50 is 20.6 µM [falling, single point].

What about the AC50 [2] of the same compound?
The AC50 was 13 µM [falling, partial curve].
